The values below come from the supplement of paper PMC10849652.

By UniProt entry, the sequences of proteins in these tests, tags left out. Where a name states a change or a piece, a line headed by the entry shows the natural chain unless it says otherwise.
UniProt P42356, whole entry, looked up: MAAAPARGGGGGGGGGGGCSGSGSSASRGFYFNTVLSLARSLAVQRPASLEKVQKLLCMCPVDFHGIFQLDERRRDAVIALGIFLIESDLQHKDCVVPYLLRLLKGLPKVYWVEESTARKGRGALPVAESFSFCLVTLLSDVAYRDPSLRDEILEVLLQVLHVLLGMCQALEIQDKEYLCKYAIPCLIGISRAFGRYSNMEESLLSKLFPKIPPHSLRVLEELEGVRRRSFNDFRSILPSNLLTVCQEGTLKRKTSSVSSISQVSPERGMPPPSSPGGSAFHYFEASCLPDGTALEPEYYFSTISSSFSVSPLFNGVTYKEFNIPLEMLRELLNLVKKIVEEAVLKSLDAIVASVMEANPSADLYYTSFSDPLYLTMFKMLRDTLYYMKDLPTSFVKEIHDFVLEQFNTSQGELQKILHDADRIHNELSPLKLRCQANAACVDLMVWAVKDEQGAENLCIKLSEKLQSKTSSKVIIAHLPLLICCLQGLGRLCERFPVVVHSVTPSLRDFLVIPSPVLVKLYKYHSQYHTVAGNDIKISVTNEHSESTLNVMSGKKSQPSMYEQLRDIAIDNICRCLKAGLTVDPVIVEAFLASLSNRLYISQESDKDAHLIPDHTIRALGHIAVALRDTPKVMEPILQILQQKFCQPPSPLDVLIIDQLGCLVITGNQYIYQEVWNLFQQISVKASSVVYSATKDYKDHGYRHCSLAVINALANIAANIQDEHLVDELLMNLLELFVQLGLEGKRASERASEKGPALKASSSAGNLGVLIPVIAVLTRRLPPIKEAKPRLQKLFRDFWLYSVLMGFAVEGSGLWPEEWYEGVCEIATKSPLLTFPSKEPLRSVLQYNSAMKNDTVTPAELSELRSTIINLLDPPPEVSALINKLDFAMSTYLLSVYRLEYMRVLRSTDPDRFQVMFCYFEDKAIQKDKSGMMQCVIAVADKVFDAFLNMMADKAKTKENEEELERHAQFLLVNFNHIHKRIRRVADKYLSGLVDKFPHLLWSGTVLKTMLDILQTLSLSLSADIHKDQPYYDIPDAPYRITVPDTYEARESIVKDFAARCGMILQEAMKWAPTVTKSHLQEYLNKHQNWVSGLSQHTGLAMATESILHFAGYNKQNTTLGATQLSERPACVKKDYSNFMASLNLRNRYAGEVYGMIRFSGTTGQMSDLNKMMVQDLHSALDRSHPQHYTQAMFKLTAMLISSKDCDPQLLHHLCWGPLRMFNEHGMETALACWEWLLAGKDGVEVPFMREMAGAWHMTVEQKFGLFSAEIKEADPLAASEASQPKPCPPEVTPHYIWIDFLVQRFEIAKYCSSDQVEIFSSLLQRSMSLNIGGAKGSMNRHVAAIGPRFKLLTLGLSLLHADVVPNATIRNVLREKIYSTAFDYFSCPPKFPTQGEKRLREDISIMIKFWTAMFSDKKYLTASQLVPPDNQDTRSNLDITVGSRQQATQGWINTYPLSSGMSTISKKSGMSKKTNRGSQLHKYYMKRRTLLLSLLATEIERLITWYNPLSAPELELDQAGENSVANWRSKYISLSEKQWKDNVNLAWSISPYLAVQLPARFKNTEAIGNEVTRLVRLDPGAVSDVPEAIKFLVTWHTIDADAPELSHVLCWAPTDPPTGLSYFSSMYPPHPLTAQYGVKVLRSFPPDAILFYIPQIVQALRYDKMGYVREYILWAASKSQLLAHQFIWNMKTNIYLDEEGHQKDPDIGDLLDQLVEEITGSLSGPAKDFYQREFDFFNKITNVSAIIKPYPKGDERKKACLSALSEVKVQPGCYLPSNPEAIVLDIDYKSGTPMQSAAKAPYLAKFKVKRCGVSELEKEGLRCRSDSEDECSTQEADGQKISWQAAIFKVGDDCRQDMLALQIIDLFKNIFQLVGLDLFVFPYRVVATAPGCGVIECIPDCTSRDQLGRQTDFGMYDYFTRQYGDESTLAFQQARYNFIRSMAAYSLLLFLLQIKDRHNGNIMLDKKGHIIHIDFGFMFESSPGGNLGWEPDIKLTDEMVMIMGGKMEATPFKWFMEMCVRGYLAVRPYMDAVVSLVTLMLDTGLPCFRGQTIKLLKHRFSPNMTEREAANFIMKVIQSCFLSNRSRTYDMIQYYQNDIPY
UniProt Q8IV08: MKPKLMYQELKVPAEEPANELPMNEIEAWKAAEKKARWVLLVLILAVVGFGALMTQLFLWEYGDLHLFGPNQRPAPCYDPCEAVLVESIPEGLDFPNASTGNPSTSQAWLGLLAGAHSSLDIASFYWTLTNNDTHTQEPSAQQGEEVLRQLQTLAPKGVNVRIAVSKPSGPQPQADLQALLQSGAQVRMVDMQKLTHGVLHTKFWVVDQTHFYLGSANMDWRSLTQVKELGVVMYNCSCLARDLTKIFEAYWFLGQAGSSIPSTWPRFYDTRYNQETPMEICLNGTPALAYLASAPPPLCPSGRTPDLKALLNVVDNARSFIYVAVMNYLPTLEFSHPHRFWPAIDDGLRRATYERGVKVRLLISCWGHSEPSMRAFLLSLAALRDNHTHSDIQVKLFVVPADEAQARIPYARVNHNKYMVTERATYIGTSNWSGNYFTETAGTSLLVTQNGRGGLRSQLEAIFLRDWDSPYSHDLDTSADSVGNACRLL
UniProt Q99570, whole entry, looked up: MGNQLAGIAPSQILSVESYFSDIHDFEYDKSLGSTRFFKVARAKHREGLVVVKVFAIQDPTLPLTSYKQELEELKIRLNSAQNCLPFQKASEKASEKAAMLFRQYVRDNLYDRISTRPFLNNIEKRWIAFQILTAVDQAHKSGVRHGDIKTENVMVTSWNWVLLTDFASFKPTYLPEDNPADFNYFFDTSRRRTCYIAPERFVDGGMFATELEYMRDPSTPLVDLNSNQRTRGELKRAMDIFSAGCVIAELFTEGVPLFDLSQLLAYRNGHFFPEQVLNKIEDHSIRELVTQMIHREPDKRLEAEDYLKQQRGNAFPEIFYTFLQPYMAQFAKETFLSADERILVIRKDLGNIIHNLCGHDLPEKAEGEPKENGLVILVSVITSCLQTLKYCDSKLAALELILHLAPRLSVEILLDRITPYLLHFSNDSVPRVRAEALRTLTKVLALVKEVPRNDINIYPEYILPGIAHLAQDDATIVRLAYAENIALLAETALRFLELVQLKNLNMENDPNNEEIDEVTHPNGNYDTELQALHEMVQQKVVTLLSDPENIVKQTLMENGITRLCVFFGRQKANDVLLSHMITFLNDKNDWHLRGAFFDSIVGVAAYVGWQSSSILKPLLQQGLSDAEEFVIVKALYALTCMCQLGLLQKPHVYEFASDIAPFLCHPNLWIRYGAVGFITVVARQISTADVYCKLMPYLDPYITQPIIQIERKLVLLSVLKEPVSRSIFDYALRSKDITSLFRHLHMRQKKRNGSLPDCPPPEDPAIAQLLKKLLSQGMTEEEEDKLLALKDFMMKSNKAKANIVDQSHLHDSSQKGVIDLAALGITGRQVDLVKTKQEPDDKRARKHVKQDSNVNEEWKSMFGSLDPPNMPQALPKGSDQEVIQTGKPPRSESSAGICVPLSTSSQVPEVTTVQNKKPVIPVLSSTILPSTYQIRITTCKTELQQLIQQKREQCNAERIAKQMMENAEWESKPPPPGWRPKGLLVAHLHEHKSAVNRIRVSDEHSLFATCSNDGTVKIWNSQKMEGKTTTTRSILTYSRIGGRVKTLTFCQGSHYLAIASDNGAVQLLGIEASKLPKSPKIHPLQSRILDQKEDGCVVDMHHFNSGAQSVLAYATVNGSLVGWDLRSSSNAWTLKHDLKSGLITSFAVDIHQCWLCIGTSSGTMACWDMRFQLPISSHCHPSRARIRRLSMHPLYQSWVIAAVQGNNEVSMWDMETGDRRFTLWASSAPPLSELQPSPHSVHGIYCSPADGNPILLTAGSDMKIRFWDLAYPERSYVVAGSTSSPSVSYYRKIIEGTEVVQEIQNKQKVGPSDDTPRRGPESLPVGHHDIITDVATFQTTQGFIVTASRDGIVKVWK
UniProt Q9GZP4: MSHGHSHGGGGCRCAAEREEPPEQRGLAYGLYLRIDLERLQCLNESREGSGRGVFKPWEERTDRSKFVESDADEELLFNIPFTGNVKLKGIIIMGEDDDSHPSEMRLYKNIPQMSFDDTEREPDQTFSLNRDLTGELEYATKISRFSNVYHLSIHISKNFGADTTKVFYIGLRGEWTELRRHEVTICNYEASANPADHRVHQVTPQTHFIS
UniProt Q13608: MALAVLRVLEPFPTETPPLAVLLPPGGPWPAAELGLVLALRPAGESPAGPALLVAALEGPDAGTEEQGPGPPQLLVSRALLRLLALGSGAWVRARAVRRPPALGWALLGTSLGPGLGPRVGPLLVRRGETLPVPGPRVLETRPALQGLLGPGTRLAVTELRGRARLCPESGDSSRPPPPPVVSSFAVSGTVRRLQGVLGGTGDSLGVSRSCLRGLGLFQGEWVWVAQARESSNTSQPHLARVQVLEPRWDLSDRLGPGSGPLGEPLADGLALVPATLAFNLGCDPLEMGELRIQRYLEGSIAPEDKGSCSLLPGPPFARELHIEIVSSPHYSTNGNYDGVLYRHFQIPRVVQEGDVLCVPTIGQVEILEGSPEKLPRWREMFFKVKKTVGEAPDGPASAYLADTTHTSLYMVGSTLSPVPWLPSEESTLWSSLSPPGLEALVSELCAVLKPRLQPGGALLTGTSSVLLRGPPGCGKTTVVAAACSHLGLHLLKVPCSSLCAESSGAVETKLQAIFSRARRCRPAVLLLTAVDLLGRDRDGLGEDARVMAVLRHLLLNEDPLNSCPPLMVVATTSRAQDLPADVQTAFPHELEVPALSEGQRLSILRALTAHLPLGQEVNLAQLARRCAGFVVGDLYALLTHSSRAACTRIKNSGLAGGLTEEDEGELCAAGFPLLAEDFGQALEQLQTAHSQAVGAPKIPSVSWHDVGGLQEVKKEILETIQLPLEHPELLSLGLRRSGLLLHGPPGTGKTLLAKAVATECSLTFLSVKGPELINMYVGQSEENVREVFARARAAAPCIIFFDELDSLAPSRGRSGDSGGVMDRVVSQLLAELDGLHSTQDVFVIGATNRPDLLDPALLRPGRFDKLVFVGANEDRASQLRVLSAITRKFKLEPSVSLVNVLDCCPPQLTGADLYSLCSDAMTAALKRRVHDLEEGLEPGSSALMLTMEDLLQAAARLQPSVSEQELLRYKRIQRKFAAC
UniProt P42338: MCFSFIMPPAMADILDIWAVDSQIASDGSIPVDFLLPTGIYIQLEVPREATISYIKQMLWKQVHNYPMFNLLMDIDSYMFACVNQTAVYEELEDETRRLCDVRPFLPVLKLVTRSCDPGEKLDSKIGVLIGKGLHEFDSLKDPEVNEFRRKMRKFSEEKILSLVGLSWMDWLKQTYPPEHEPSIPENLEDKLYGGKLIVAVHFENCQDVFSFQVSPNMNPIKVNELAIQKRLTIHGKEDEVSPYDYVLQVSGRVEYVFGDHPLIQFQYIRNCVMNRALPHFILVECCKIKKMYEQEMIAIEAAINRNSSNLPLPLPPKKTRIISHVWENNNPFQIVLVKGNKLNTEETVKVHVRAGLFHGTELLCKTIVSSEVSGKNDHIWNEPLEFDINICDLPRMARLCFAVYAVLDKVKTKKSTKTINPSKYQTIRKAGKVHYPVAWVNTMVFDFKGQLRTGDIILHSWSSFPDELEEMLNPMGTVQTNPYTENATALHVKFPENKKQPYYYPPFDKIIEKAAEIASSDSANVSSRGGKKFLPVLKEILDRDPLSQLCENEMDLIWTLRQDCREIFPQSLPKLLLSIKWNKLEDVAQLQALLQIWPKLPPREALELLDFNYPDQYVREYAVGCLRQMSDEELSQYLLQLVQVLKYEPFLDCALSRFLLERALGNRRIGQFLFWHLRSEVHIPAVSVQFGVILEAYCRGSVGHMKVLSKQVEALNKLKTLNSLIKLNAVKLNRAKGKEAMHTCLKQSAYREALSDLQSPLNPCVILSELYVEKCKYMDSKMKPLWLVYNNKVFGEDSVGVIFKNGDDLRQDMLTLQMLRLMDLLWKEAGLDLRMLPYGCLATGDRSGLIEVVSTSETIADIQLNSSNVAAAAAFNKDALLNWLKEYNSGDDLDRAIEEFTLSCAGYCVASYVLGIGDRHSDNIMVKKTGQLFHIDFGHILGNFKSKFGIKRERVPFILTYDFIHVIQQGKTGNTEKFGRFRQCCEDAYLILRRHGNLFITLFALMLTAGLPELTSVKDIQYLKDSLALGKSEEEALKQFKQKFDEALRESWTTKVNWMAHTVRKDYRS
UniProt Q96BK5: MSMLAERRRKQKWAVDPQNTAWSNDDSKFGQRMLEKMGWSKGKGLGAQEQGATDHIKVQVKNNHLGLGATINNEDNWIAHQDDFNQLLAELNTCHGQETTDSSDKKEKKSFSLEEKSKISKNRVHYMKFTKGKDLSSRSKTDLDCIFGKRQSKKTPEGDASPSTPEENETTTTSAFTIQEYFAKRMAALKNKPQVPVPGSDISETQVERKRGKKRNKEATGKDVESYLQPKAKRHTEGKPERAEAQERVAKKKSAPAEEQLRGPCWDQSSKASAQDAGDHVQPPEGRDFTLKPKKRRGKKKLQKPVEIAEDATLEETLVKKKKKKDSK

The other results are listed elsewhere or left out.

Compound in this experiment: CC1=C(C=C(C=C1)NC(=O)C2=CC(=CC=C2)C(C)(C)C#N)NC3=CC4=C(C=C3)N=CN(C4=O)C
As to the kind of experiment: log2 fold change, soluble protein after heating vs DMSO (PISA); higher = thermal stabilisation; K562 cells, 10 uM, 30 min; active = over 0.2 and 3.5 SD of the protein, either way, in both replicates (recomputed). Summed up:
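K562 cells at 2×10^6 cells/mL were treated for 30 min with 10 μM compound, and aliquots were heated for 3 min over 48°C-58°C before pooling. Extraction used PBS with 0.5% NP-40 at 4°C, and soluble protein was the supernatant after 21,000xg for 90 min, measured by TMTpro 16plex LC-MS/MS with channel sums equalised. Thermal stability values, relative to control samples and from duplicates, are log2 fold changes.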
For PGK1 (UniProt P00558), the log2 fold change is inactive: 0.022.

For the target PHGDH (UniProt O43175), the log2 fold change was inactive: 0.023. Take PKN2 (UniProt Q16513): the log2 fold change is inactive: 0.104. In the case of PGLS (UniProt O95336) it was inactive: 0.027; in that of PGAM5 (UniProt Q96HS1), inactive: 0.001; in that of PICALM (UniProt Q13492), inactive: -0.015.

PHACTR4 isoform 2 (UniProt Q8IZ21): the log2 fold change was inactive: -0.007. As for PHAX (UniProt Q9H814), the log2 fold change is inactive: -0.019. Consider PI4KA (UniProt P42356), for which the log2 fold change is inactive: 0.036. For the target PGRMC1 (UniProt O00264), the log2 fold change was inactive: -0.017.

PLD3 (UniProt Q8IV08): the log2 fold change is inactive: 0.002. Take PKLR (UniProt P30613): the log2 fold change is inactive: -0.022. In the case of PIP4P1 isoform 2 (UniProt Q86T03) it was inactive: -0.018. Take PIK3R4 (UniProt Q99570): the log2 fold change was inactive: -0.003. In the case of PI4K2A (UniProt Q9BTU6), the log2 fold change is inactive: -0.037. For PFKP (UniProt Q01813), the log2 fold change is inactive: -0.012. In the case of PIR (UniProt O00625) it was inactive: -0.063.

Consider PIKFYVE (UniProt Q9Y2I7), for which the log2 fold change is inactive: -0.012. Then PITHD1 (UniProt Q9GZP4), with inactive: 0.012; and PGGT1B (UniProt P53609), with inactive: -0.062; and PLA2G15 (UniProt Q8NCC3), with inactive: 0.04. PEX6 (UniProt Q13608): the log2 fold change is inactive: 0.079.

As for PIK3CB (UniProt P42338), the log2 fold change is inactive: -0.034. With PHB (UniProt P35232), the log2 fold change was inactive: 0.008. In the case of PEX16 isoform 2 (UniProt Q9Y5Y5) it was inactive: 0.017; in that of PITPNB isoform 3 (UniProt P48739), inactive: 0. Take PFDN6 (UniProt O15212): the log2 fold change is inactive: 0.036. For PINX1 (UniProt Q96BK5), the log2 fold change is inactive: 0.028. On to PGPEP1 (UniProt Q9NXJ5), for which the log2 fold change was inactive: 0.039. Turning to PLCB3 (UniProt Q01970), the log2 fold change is inactive: 0.033. In the case of PJA2 (UniProt O43164), the log2 fold change is inactive: -0.059.

Take PIH1D1 (UniProt Q9NWS0): the log2 fold change was inactive: 0.021. In the case of PFKFB4 (UniProt Q16877) it was inactive: -0.02.
